Data as given in PubChem BioAssay AID1259424 (University of Nebraska Medical Center, 2018).
In all, the deposit lists about 14,000 reagents; shown is a random part of them. 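Higher correlation or smaller distance means closer resemblance to KSR1 loss; control wells, including KSR1 knockdowns, recur on many plates.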 The record does not give: the time to read-out.

- Purpose: 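Rank knockdowns across the genome by resemblance to the KSR1 depletion profile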 (primary screen)
- System: human HCT116 colon cancer cells
- Reagent: siRNA pool against human genes, 50 nM
- Read-out: 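Six signature mRNAs by branched-DNA multiplex assay, scaled to two housekeeping genes and non-targeting median, log2; matched to mean KSR1 knockdown profile by Pearson correlation and euclidean distance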
- Reading the numbers: mean correlation with KSR1 profile and KSR1 correlation: higher = expression change more like KSR1 knockdown; mean distance from KSR1 profile: higher = expression change less like KSR1 knockdown

target gene	mean correlation with KSR1 profile	mean distance from KSR1 profile	KSR1 correlation, replicate 1	KSR1 correlation, replicate 2	KSR1 correlation, replicate 3
SYCP3 (GeneID 50511)	-0.179	3.76	0.0181	-0.108	-0.0202
CST8 (GeneID 10047)	-0.373	1.78	-0.275	-0.462	-0.508
DNAH6 (GeneID 1768)	-0.134	2.16	0.0484	0.244	-0.523
H4C11 (GeneID 8363)	0.365	1.62	0.408	0.501	0.163
L2HGDH (GeneID 79944)	-0.465	2.86	-0.408	-0.315	-0.546
PDE1B (GeneID 5153)	0.55	2.11	0.382	0.587	0.563
IL9R (GeneID 3581)	0.245	1.56	0.259	0.198	0.206
CREB3L2 (GeneID 64764)	-0.545	2.58	-0.675	-0.762	-0.338
ATF2 (GeneID 1386)	-0.229	2.53	-0.111	-0.384	-0.409
FANCD2 (GeneID 2177)	0.013	2.11	-0.12	-0.0807	0.0597
SLC45A1 (GeneID 50651)	-0.815	2.35	-0.785	-0.789	-0.839
MED24 (GeneID 9862)	0.37	3.09	0.441	0.443	0.143
CFAP298 (GeneID 56683)	-0.69	2.98	-0.556	-0.719	-0.584
RASGRF1 (GeneID 5923)	-0.512	3.44	-0.458	-0.365	-0.702
CD70 (GeneID 970)	-0.255	1.88	-0.0436	-0.44	-0.393
PRM3 (GeneID 58531)	0.385	2.06	0.188	0.602	0.49
TMCO1 (GeneID 54499)	-0.617	1.75	-0.369	-0.743	-0.203
CHRM3 (GeneID 1131)	0.366	2.31	0.572	0.53	-0.374
PGLYRP4 (GeneID 57115)	0.184	3.56	-0.0401	0.294	0.401
DALRD3 (GeneID 55152)	0.436	1.51	0.467	0.078	0.4
PLA2R1 (GeneID 22925)	0.468	2.27	0.00316	0.774	0.362
BLTP3B (GeneID 23074)	-0.0934	2.12	0.303	-0.256	-0.267
RIPK4 (GeneID 54101)	0.375	2.28	0.441	0.345	0.092
PARP9 (GeneID 83666)	0.358	1.74	0.258	0.345	-0.0726
LRRC4 (GeneID 64101)	-0.368	4.07	-0.395	-0.266	-0.306
FBXO6 (GeneID 26270)	-0.196	2.91	-0.225	-0.317	-0.0281
SLC17A6 (GeneID 57084)	-0.687	1.93	-0.694	-0.51	-0.404
LNPK (GeneID 80856)	0.427	1.4	0.194	0.348	0.432
OAS2 (GeneID 4939)	-0.0149	2.3	-0.0743	0.0325	-0.201
GFRA4 (GeneID 64096)	0.151	3.13	0.113	0.176	0.0622
ZNF671 (GeneID 79891)	-0.378	2.53	-0.403	-0.278	-0.345
CDH1 (GeneID 999)	0.884	0.599	0.894	0.641	0.95
DNMT3L (GeneID 29947)	0.351	0.914	-0.12	0.112	0.00431
ABCE1 (GeneID 6059)	-0.486	1.87	-0.23	-0.479	-0.547

3 consecutive records already listed, for reference:
target gene	mean correlation with KSR1 profile	mean distance from KSR1 profile	KSR1 correlation, replicate 1	KSR1 correlation, replicate 2	KSR1 correlation, replicate 3
PARP9 (GeneID 83666)	0.358	1.74	0.258	0.345	-0.0726
LRRC4 (GeneID 64101)	-0.368	4.07	-0.395	-0.266	-0.306
FBXO6 (GeneID 26270)	-0.196	2.91	-0.225	-0.317	-0.0281
